# Experimental data from the supplement of paper PMC10849652.
# Protein sequences, listed by entry. Tags and fused reporters are not part of them. Lines headed by an entry give the natural chain unless they say otherwise; changes in a name come on top.
# UniProt Q9NZN5: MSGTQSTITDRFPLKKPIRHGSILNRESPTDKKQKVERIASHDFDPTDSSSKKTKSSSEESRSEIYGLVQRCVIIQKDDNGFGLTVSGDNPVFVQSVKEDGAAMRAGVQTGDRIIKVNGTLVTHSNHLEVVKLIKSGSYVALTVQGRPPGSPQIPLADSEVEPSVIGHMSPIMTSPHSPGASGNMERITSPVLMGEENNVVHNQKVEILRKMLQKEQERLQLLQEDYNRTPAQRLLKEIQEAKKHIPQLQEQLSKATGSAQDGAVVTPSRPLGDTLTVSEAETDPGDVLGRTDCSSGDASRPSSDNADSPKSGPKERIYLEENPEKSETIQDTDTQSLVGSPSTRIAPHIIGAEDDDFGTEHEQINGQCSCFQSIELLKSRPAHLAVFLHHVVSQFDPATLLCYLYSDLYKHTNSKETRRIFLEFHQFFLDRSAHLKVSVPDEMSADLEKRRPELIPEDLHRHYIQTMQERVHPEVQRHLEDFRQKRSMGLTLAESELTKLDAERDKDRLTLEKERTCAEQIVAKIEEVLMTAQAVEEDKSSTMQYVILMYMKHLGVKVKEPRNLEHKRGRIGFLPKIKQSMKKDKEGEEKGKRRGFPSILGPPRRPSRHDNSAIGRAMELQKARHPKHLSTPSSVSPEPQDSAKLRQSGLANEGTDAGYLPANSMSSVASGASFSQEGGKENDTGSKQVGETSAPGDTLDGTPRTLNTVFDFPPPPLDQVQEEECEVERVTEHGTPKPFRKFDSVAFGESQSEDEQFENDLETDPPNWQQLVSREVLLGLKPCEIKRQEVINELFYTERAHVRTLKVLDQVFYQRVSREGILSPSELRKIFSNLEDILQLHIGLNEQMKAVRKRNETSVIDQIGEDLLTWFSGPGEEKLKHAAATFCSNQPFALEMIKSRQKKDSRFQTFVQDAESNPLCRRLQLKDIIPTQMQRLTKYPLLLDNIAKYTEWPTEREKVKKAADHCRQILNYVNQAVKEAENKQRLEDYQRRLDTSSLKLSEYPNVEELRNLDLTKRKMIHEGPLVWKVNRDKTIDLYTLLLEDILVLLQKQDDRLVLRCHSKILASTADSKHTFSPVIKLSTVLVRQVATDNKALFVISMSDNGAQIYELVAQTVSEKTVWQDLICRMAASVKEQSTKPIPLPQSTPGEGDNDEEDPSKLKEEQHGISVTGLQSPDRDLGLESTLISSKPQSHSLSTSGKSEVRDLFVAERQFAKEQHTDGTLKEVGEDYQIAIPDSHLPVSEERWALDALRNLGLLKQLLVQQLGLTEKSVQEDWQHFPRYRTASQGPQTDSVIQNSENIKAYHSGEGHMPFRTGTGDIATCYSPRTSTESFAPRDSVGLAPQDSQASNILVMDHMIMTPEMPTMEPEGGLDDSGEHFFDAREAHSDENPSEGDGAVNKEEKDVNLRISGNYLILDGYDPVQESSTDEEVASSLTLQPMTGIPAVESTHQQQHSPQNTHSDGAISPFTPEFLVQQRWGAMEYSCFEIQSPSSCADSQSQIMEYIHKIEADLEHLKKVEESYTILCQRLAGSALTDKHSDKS
# UniProt Q8IW19: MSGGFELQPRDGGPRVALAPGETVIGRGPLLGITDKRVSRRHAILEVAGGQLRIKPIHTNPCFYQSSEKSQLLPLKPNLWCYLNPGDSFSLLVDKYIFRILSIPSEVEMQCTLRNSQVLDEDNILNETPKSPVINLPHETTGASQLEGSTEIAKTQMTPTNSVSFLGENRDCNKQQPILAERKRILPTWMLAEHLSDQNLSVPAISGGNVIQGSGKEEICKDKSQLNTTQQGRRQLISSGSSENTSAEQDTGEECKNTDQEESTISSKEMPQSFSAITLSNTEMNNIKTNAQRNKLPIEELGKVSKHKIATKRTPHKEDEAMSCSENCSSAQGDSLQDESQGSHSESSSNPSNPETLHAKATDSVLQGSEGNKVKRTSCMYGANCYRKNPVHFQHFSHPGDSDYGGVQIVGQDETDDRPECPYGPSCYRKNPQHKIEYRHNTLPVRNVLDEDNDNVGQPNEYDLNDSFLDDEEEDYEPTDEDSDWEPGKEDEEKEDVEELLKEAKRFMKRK
# UniProt A6QL64: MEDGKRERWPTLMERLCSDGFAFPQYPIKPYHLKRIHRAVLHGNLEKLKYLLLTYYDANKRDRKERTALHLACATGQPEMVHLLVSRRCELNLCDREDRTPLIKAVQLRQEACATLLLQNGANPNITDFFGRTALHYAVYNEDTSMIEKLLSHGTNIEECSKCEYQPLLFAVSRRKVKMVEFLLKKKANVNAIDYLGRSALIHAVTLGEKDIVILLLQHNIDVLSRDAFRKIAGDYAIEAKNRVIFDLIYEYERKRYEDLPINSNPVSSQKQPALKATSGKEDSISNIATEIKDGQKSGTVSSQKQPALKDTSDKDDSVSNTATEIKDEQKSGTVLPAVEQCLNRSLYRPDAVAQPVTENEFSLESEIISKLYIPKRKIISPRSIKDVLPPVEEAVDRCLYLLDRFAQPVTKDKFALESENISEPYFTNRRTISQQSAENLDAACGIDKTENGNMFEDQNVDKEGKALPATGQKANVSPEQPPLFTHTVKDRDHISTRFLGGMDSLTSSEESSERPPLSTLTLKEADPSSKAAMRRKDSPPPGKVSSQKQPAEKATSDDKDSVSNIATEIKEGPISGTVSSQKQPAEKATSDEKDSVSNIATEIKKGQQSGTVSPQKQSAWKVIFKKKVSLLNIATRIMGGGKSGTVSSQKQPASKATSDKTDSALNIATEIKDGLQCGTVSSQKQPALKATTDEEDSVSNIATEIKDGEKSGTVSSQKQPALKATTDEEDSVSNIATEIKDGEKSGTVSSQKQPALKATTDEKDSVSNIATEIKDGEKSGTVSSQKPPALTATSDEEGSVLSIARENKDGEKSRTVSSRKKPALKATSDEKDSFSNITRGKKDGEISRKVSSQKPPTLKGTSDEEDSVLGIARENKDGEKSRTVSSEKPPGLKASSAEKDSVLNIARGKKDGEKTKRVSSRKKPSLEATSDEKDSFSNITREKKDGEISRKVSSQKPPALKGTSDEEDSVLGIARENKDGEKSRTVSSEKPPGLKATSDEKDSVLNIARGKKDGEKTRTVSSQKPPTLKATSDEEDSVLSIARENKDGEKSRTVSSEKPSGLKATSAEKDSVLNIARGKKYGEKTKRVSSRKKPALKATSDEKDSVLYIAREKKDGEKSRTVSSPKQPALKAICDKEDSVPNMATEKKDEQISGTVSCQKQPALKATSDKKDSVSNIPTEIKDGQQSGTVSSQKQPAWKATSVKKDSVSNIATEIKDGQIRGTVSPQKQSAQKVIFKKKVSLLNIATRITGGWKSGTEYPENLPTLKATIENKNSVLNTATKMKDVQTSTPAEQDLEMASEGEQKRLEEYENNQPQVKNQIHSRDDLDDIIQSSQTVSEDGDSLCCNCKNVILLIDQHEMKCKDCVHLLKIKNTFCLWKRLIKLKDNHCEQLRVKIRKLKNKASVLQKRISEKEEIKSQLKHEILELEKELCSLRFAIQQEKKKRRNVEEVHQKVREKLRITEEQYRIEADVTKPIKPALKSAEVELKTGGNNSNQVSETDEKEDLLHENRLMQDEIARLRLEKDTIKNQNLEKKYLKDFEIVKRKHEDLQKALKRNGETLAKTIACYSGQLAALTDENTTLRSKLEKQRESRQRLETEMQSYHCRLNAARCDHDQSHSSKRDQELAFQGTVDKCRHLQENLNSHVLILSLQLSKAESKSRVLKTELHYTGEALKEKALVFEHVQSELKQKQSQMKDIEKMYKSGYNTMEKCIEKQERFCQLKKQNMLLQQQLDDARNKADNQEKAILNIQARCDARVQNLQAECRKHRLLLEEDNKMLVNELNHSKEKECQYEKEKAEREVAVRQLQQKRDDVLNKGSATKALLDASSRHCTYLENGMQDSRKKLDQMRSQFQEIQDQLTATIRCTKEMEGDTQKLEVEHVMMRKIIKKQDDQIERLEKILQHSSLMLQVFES
# UniProt P06727: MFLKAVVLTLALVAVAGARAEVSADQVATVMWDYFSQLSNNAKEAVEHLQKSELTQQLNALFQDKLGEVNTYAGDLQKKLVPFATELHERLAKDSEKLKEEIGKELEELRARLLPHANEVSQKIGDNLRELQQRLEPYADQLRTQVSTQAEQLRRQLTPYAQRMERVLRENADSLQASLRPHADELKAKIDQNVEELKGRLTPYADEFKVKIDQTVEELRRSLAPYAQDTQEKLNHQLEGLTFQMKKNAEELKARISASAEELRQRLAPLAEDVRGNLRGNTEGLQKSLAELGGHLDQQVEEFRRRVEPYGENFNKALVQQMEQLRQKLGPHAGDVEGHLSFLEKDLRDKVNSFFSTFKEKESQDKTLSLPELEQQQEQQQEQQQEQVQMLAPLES
# UniProt Q13017, whole entry, looked up: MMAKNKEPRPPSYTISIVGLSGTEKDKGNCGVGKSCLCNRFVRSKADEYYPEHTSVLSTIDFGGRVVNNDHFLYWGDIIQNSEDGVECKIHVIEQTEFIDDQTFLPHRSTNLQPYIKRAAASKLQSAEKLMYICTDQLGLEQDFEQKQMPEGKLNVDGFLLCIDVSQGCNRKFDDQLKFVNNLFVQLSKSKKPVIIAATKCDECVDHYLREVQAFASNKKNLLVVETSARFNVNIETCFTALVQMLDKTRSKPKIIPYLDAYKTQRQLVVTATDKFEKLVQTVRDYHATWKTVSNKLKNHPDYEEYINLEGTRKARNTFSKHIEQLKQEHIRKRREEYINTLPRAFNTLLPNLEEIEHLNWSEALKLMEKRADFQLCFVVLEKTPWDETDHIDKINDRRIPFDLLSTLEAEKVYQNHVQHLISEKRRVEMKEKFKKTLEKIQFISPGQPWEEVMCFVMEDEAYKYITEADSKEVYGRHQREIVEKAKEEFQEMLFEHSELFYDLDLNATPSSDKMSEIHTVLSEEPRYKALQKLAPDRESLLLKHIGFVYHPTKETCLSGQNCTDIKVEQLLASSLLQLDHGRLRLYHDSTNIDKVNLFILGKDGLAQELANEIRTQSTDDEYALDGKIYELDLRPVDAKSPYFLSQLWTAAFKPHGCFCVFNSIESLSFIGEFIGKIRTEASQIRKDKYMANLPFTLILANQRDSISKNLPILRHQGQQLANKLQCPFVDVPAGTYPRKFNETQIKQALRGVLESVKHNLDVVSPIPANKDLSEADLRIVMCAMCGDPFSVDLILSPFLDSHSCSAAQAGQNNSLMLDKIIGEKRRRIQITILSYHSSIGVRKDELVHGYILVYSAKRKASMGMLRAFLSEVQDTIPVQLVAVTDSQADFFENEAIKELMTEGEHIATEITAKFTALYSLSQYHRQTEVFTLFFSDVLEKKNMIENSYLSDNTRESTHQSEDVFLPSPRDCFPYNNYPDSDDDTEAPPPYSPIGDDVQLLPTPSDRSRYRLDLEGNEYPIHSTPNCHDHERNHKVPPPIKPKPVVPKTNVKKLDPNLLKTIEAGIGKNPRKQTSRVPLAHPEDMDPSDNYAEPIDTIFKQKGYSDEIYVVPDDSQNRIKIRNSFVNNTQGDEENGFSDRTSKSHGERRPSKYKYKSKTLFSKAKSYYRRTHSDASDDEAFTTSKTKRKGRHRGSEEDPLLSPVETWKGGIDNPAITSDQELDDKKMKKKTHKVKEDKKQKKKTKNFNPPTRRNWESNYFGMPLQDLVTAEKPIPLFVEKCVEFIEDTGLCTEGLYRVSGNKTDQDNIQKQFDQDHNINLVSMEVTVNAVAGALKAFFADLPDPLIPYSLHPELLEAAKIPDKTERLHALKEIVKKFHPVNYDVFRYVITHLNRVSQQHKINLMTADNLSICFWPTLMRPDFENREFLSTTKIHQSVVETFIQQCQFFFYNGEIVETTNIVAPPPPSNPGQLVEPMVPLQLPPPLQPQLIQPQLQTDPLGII
# UniProt Q9UH17: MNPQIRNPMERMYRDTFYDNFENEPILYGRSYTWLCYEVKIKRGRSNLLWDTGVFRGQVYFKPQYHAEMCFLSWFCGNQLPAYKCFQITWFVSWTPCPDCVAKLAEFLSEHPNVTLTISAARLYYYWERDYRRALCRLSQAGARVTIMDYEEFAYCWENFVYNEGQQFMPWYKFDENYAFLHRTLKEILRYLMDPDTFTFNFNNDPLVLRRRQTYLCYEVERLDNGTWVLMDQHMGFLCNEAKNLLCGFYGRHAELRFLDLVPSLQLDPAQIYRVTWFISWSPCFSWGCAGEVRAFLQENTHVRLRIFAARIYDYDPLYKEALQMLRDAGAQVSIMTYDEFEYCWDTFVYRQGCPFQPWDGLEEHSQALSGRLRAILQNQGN
# UniProt P15514, whole entry, looked up: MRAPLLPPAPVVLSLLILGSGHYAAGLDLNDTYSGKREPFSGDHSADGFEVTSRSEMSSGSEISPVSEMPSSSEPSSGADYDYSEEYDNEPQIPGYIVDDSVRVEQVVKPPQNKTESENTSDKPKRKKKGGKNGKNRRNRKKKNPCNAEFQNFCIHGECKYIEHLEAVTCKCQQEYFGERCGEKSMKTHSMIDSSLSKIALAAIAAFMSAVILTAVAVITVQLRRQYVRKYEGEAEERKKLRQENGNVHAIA
# The other results are listed elsewhere or left out.
# Experiments:
# Assay in all cases: log2 fold change, soluble protein after heating vs DMSO (PISA); higher = thermal stabilisation; K562 cells, 10 uM, 30 min; active = over 0.2 and 3.5 SD of the protein, either way, in both replicates (recomputed)
# epoxomicin = compound: CC[C@H](C)[C@@H](C(=O)N[C@@H]([C@@H](C)O)C(=O)N[C@@H](CC(C)C)C(=O)[C@]1(CO1)C)NC(=O)[C@H]([C@@H](C)CC)N(C)C(=O)C [epoxomicin]
# How it was run: (§1)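 K562 cells at 2×10^6 cells/mL were treated for 30 min with 10 μM compound, and aliquots were heated for 3 min over 48°C-58°C before pooling. Extraction used PBS with 0.5% NP-40 at 4°C, and soluble protein was the supernatant after 21,000xg for 90 min, measured by TMTpro 16plex LC-MS/MS with channel sums equalised. Thermal stability values, relative to control samples and from duplicates, are log2 fold changes.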
# [1] = compound: CC[C@H](C)N1C=C(C2=C(C=C(C=C21)C3=CN=C(C=C3)N4CCNCC4)C(=O)NCC5=C(C=C(NC5=O)C)C)C
# How it was run: as §1
# [2] = compound: CCn1c(C(=O)N(C2CC2)C2CC2)cc2c3c(ncn3C)c(Nc3cc(C)n(C)n3)nc21
# How it was run: as §1
# volasertib = compound: CC[C@@H]1C(=O)N(C)c2cnc(Nc3ccc(C(=O)N[C@H]4CC[C@H](N5CCN(CC6CC6)CC5)CC4)cc3OC)nc2N1C(C)C [volasertib]
# How it was run: as §1
# [3] = compound: CCn1cc(-c2ccnc3[nH]c(-c4cccc(CN(C)C)c4)cc23)c(-c2ccc(NC(=O)N(C)C)cc2)n1
# How it was run: as §1
# [4] = compound: CN(C)CC(=O)Nc1ccc2[nH]c(=O)c3ccccc3c2c1
# How it was run: as §1
# [5] = compound: CN1C2=C(C3=C1C(=O)N(N=C3)CC4=CC(=CC=C4)N)SC(=C2)S(=O)C
# How it was run: as §1
# [6] = compound: CN1CCC(CNc2ccc3ncc(-c4cccc(OC(F)(F)F)c4)n3n2)CC1
# How it was run: as §1
# rosiglitazone = compound: CN(CCOC1=CC=C(C=C1)C[C@H]2C(=O)NC(=O)S2)C3=CC=CC=N3 (racemic) [rosiglitazone]
# How it was run: as §1
# [7] = compound: CC[C@@H]1C(=O)N(C)c2cnc(Nc3ccc(C(=O)NC4CCN(C)CC4)cc3OC)nc2N1C1CCCC1
# How it was run: as §1
target,measurement,setting,value
APBA2 (UniProt Q99767),log2 fold change,epoxomicin,inactive: 0.074
AP5S1 (UniProt Q9NUS5),log2 fold change,[1],inactive: 0.08
same,log2 fold change,[2],inactive: -0.085
AQR (UniProt O60306),log2 fold change,volasertib,inactive: -0.039
same,log2 fold change,epoxomicin,inactive: -0.104
same,log2 fold change,[2],inactive: -0.088
same,log2 fold change,[3],inactive: 0.009
same,log2 fold change,[4],inactive: -0.231
same,log2 fold change,[5],inactive: 0.187
same,log2 fold change,[6],inactive: 0.113
ARHGEF10 (UniProt O15013),log2 fold change,[4],inactive: -0.225
same,log2 fold change,rosiglitazone,inactive: -0.008
API5 isoform 1 (UniProt Q9BZZ5),log2 fold change,volasertib,inactive: 0.094
same,log2 fold change,[1],inactive: 0.05
same,log2 fold change,epoxomicin,inactive: 0.22
same,log2 fold change,[4],inactive: 0.091
same,log2 fold change,[5],inactive: -0.081
ANGEL1 (UniProt Q9UNK9),log2 fold change,[4],inactive: 0.038
ARHGAP21 (UniProt Q5T5U3),log2 fold change,[1],inactive: -0.179
same,log2 fold change,epoxomicin,inactive: -0.185
same,log2 fold change,[3],inactive: 0.284
same,log2 fold change,rosiglitazone,inactive: -0.258
same,log2 fold change,[5],inactive: 0.401
same,log2 fold change,[6],inactive: 0.028
APC (UniProt P25054),log2 fold change,[7],inactive: 0.186
same,log2 fold change,epoxomicin,inactive: -0.06
same,log2 fold change,[2],inactive: 0.077
same,log2 fold change,[4],inactive: 0.047
same,log2 fold change,rosiglitazone,inactive: -0.143
same,log2 fold change,[5],inactive: 0.12
ARHGEF12 (UniProt Q9NZN5),log2 fold change,volasertib,inactive: -0.283
same,log2 fold change,epoxomicin,inactive: -0.324
same,log2 fold change,[2],inactive: -0.062
same,log2 fold change,[4],inactive: 0.055
same,log2 fold change,rosiglitazone,inactive: -0.076
same,log2 fold change,[5],inactive: 0.251
APLF (UniProt Q8IW19),log2 fold change,volasertib,inactive: 0.079
ANKRD36 (UniProt A6QL64),log2 fold change,[7],inactive: 0.089
same,log2 fold change,epoxomicin,inactive: 0.14
same,log2 fold change,[3],inactive: 0.036
same,log2 fold change,[4],inactive: -0.28
same,log2 fold change,[5],inactive: 0.293
same,log2 fold change,[6],inactive: -0.528
APOL1 isoform 2 (UniProt O14791),log2 fold change,[7],inactive: 0.295
same,log2 fold change,[1],inactive: -0.388
same,log2 fold change,rosiglitazone,inactive: 0.012
AP3M2 (UniProt P53677),log2 fold change,[2],inactive: 0.139
same,log2 fold change,rosiglitazone,inactive: 0.037
APTX (UniProt Q7Z2E3),log2 fold change,epoxomicin,inactive: 0.074
same,log2 fold change,[2],inactive: -0.263
same,log2 fold change,[3],inactive: -0.086
same,log2 fold change,[5],inactive: -0.012
same,log2 fold change,[6],inactive: 0.126
ARID1B isoform 3 (UniProt Q8NFD5),log2 fold change,rosiglitazone,inactive: -0.093
APPBP2 (UniProt Q92624),log2 fold change,volasertib,inactive: -0.059
same,log2 fold change,[1],inactive: -0.001
same,log2 fold change,[3],inactive: -0.165
same,log2 fold change,rosiglitazone,inactive: 0.039
same,log2 fold change,[5],inactive: 0.176
same,log2 fold change,[6],inactive: -0.119
APOA4 (UniProt P06727),log2 fold change,[1],inactive: 0.014
same,log2 fold change,epoxomicin,inactive: -0.066
same,log2 fold change,[4],inactive: -0.053
same,log2 fold change,rosiglitazone,inactive: 0.039
ANPEP (UniProt P15144),log2 fold change,volasertib,inactive: -0.051
same,log2 fold change,[1],inactive: 0.087
same,log2 fold change,[2],inactive: 0.102
same,log2 fold change,[3],inactive: -0.063
same,log2 fold change,[5],inactive: -0.144
same,log2 fold change,[6],inactive: -0.069
ARHGAP6 (UniProt O43182),log2 fold change,[7],inactive: -0.049
same,log2 fold change,[1],inactive: 0.123
same,log2 fold change,epoxomicin,inactive: -0.115
same,log2 fold change,[5],inactive: 0.274
ANKRD13C (UniProt Q8N6S4),log2 fold change,[7],inactive: -0.191
same,log2 fold change,epoxomicin,inactive: 0.019
same,log2 fold change,[4],inactive: 0.001
APOC2 (UniProt P02655),log2 fold change,[1],inactive: -0.056
same,log2 fold change,[3],inactive: -0.404
same,log2 fold change,[4],inactive: -0.045
same,log2 fold change,[5],inactive: 0.095
same,log2 fold change,[6],inactive: 0.018
ARHGAP5 (UniProt Q13017),log2 fold change,[7],inactive: -0.149
same,log2 fold change,epoxomicin,inactive: 0.027
same,log2 fold change,[2],inactive: -0.126
same,log2 fold change,rosiglitazone,inactive: 0.048
AP4B1 (UniProt Q9Y6B7),log2 fold change,[7],inactive: -0.119
same,log2 fold change,[1],inactive: 0.073
same,log2 fold change,[2],inactive: 0.046
same,log2 fold change,[3],inactive: 0.071
same,log2 fold change,[4],inactive: 0.046
same,log2 fold change,rosiglitazone,inactive: -0.062
same,log2 fold change,[5],inactive: 0.141
same,log2 fold change,[6],inactive: -0.178
ARHGEF18 (UniProt Q6ZSZ5),log2 fold change,volasertib,inactive: -0.059
same,log2 fold change,[1],inactive: -0.105
same,log2 fold change,epoxomicin,inactive: -0.118
same,log2 fold change,[2],inactive: -0.06
same,log2 fold change,[3],inactive: 0.057
same,log2 fold change,[4],inactive: -0.069
same,log2 fold change,rosiglitazone,inactive: 0.036
same,log2 fold change,[5],inactive: 0.08
same,log2 fold change,[6],inactive: -0.101
ANKRD26 (UniProt Q9UPS8),log2 fold change,volasertib,inactive: 0.017
same,log2 fold change,[1],inactive: -0.009
same,log2 fold change,[3],inactive: -0.207
same,log2 fold change,[4],inactive: 0.028
same,log2 fold change,[6],inactive: 0.022
AP1G2 (UniProt O75843),log2 fold change,volasertib,inactive: -0.126
same,log2 fold change,[2],inactive: -0.122
same,log2 fold change,[5],inactive: 0.101
ANXA2 (UniProt H0YMT9),log2 fold change,epoxomicin,inactive: -0.132
same,log2 fold change,rosiglitazone,inactive: 0.289
same,log2 fold change,[5],inactive: -0.057
APOBEC3B (UniProt Q9UH17),log2 fold change,[1],inactive: -0.233
ANKRD16 (UniProt Q6P6B7),log2 fold change,volasertib,inactive: -0.019
same,log2 fold change,epoxomicin,inactive: 0.012
same,log2 fold change,[2],inactive: -0.053
same,log2 fold change,[4],inactive: -0.083
same,log2 fold change,rosiglitazone,inactive: -0.059
ARFIP1 isoform 2 (UniProt P53367),log2 fold change,volasertib,inactive: -0.134
same,log2 fold change,[1],inactive: 0.071
same,log2 fold change,epoxomicin,inactive: -0.004
same,log2 fold change,[3],inactive: 0.259
same,log2 fold change,[5],inactive: -0.124
same,log2 fold change,[6],active: -0.512
APH1B (UniProt Q8WW43),log2 fold change,[3],inactive: 0.036
same,log2 fold change,[6],inactive: 0.034
ARHGAP25 isoform 4 (UniProt P42331),log2 fold change,[7],inactive: -0.031
same,log2 fold change,[1],inactive: -0.031
same,log2 fold change,epoxomicin,inactive: 0.083
same,log2 fold change,[3],inactive: 0.072
same,log2 fold change,[4],inactive: 0.134
same,log2 fold change,[5],inactive: 0.127
same,log2 fold change,[6],inactive: -0.221
AREG (UniProt P15514),log2 fold change,volasertib,inactive: 0.242
same,log2 fold change,[2],inactive: -0.003
same,log2 fold change,[5],inactive: 0.009
ANKRD11 (UniProt Q6UB99),log2 fold change,[1],inactive: -0.212
same,log2 fold change,[2],inactive: 0.002
same,log2 fold change,[4],inactive: 0.023
same,log2 fold change,rosiglitazone,inactive: 0.052
ANKIB1 (UniProt Q9P2G1),log2 fold change,[1],inactive: 0.164
ARHGEF7 isoform 5 (UniProt Q14155),log2 fold change,volasertib,inactive: -0.349
same,log2 fold change,[1],inactive: -0.009
same,log2 fold change,epoxomicin,inactive: -0.028
same,log2 fold change,[2],inactive: -0.064
same,log2 fold change,[3],inactive: 0.08
same,log2 fold change,[4],inactive: 0.039
same,log2 fold change,rosiglitazone,inactive: -0.02
same,log2 fold change,[5],inactive: 0.068
same,log2 fold change,[6],inactive: -0.016
AP2M1 (UniProt C9JTK4),log2 fold change,[7],inactive: 0.03
same,log2 fold change,[1],inactive: -0.051
same,log2 fold change,epoxomicin,inactive: 0.027
same,log2 fold change,[4],inactive: -0.243
same,log2 fold change,[5],inactive: -0.049

# Random excerpt: four entries already listed
target,measurement,setting,value
ARHGAP25 isoform 4 (UniProt P42331),log2 fold change,[3],inactive: 0.072
AP4B1 (UniProt Q9Y6B7),log2 fold change,rosiglitazone,inactive: -0.062
API5 isoform 1 (UniProt Q9BZZ5),log2 fold change,[1],inactive: 0.05
ARHGEF12 (UniProt Q9NZN5),log2 fold change,epoxomicin,inactive: -0.324

# Shown with bars between the fields: entries from further up.
target | measurement | setting | value
AQR (UniProt O60306) | log2 fold change | volasertib | inactive: -0.039
ARHGEF12 (UniProt Q9NZN5) | log2 fold change | epoxomicin | inactive: -0.324
same | log2 fold change | [2] | inactive: -0.062
same | log2 fold change | [5] | inactive: 0.251
APPBP2 (UniProt Q92624) | log2 fold change | [5] | inactive: 0.176
APOC2 (UniProt P02655) | log2 fold change | [5] | inactive: 0.095
ARHGEF7 isoform 5 (UniProt Q14155) | log2 fold change | [4] | inactive: 0.039
